# Record: PubChem BioAssay AID743454 (Peter MacCallum Cancer Centre, 2014)
# Test: 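Genes whose loss kills vorinostat-resistant colon cancer cells under vorinostat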 (primary screen)
# Cell system: human HCT116-VR colon cancer cells, selected for vorinostat resistance
# Reagents: siRNA pool against human genes, 40 nM siRNA pool
# Timing: vorinostat for 24 h, read-out about 72 h after transfection
# Challenge: vorinostat at 2.5 µM final
# Measurement: 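Two measures, CellTiter-Fluor viability and luminescent caspase 3/7 activity, each as fold change against same-plate mock wells, mean of duplicates, then screen-wide robust z-score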
# Scale: viability robust z-score: higher = more viable cells than screen typical; caspase robust z-score: higher = more caspase 3/7 activity than screen typical
# Hit rule: 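Hits are knock-downs in viability class RV1/RV2 or caspase class CA1/CA2, excluding ones that killed cells in the no-drug cell-count arm; hits then retested with single siRNAs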
# The whole screen tested about 18,000 reagents; this is a part drawn at random. Over the whole deposit, 450 (2.5%) are marked active. 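Single biological run; no consistent viability z cut-off exists, so the class columns, not z-scores, define the calls.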 A number with no mark means an inactive call. The numbers tell different reagents against one gene apart.
The opening 2 entries, ahead of the listing:
gene,pool no.,viability hit class,caspase hit class,viability robust z-score,caspase robust z-score
SMYD2,1,no change,no change,2.41,-0.74
MSANTD1,1,no change (active),CA1 (caspase activation),-2.77,5.9

The listing, from the first entry:
gene,pool no.,viability hit class,caspase hit class,viability robust z-score,caspase robust z-score
SMYD2,1,no change,no change,2.41,-0.74
MSANTD1,1,no change (active),CA1 (caspase activation),-2.77,5.9
ZNF112,1,no change,no change,-0.64,0.46
KCNU1,1,no change,no change,1.03,-0.32
SH3GL2,1,no change,no change,0.78,-0.59
SOS2,1,no change,no change,0.26,-1.21
WDR37,1,no change,no change,-1.33,0.11
H1-0,1,no change,no change,0.02,-0.08
NTHL1,1,no change,no change,0.1,0.94
PDYN,1,no change,no change,0.36,-0.37
BCL2L11,1,no change,no change,0.23,-0.99
ASTL,1,no change,no change,-0.12,-0.41
ALDH16A1,1,no change,no change,0.9,-0.92
DCAF13,1,no change,no change,-1.06,-1
DUSP9,1,no change,no change,0.32,2.96
PYCR3,1,no change,no change,-0.99,0.68
ACSL1,1,no change,no change,1.15,-0.26
SART1,1,no change,no change,-2.54,-0.22
EREG,1,no change,no change,-1.82,1.29
GPX1,1,no change,no change,0.38,0.3
SNX19,1,no change,no change,-0.26,-0.45
ZNF177,1,no change,no change,1.19,-0.11
MAK16,1,RV2 (reduced viability) (active),no change,-2.96,1.31
PLEKHA5,1,no change,no change,-0.32,-0.45
SERPINA3,1,no change,no change,0.06,2.79
CCDC142,1,no change,no change,-0.38,0.22
FAM107A,1,no change,no change,-1.4,0.66
ZNF600,1,no change,no change,-0.12,1.26
AMBN,1,no change,no change,1.51,-0.8
MMRN1,1,no change,no change,-0.1,-0.66
GLYATL2,1,no change,no change,-0.46,1.01
NOVA2,1,no change,no change,-0.14,1.08
CFAP418,1,no change,no change,1.14,-0.33
MSS51,1,no change (active),CA1 (caspase activation),-0.4,5.65
ACTL7B,1,no change,no change,0.44,-0.32
OR5L2,1,no change,no change,-1.01,1.73
SEMA4A,1,no change,no change,0.29,-0.04
KCNA4,1,no change,no change,-0.11,0.24
PGLS,1,no change,no change,0.12,2.88
HNRNPUL1,1,no change,no change,1.09,-0.04
EML2,1,no change,no change,1.2,-0.8
SELENOO,1,no change,no change,0.16,0.9
LDAF1,1,no change,no change,0.14,-0.43
FGF20,1,no change,no change,-0.54,0.21
SPANXB1,1,no change,no change,0.42,1.99
SPANXB1,2,no change,no change,-1.66,-0.6
GRK6,1,no change,no change,-0.46,2.19
UNC45A,1,no change,no change,-0.12,1.37
REXO2,1,no change,no change,0.09,-0.73
CFAP161,1,no change,no change,-0.93,-0.31
ETS2-AS1,1,no change,no change,1.02,0.11
GOLIM4,1,no change,no change,0.74,-0.08
C6orf47,1,no change,no change,-0.19,1.71
SF3A2,1,no change,no change,-1.92,-0.23
CCL7,1,no change,no change,-1.6,1.37
FBXO3,1,no change,no change,0.22,0.3
ROPN1,1,no change,no change,-1.21,1.07
NDUFA6,1,no change,no change,-2.84,0.72
CBLB,1,no change,no change,-0.8,4.23
RNF31,1,no change,no change,1.37,0.04
GAA,1,no change,no change,-0.56,2.65
BPY2,1,no change,no change,0.32,3
CHRNB3,1,no change,no change,0.82,-0.16
ARHGAP31,1,no change,no change,1.45,-0.64
NUP188,1,no change,no change,-0.49,3.02
LAMA5,1,no change,no change,2.08,-0.05
C5orf22,1,no change,no change,-0.49,1.36
PALD1,1,no change,no change,-0.44,-0.94
HTR7,1,no change,no change,-1.34,0.08
EWSR1,1,no change,no change,0.48,0.8
TLR5,1,no change,no change,0.05,-0.6
KIAA0319L,1,no change,no change,-0.2,-0.58
LNPEP,1,no change,no change,-0.64,-0.31
